Values from PubChem BioAssay AID504793 (Drosophila RNAi Screening Center, 2011)

Aim: 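Genes required for cells to halt at G2/M after double-strand DNA breaks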 (primary screen)
Cells: Drosophila S2R+ cells
Reagent: long dsRNA against Drosophila genes, about 0.25 µg dsRNA per well
Timing: 4 days of dsRNA, then 4 hours of drug before read-out
Conditions: doxorubicin 0.5 µM for 4 hours to cause double-strand breaks, in cells also given a low, harmless dose of dsRNA against nbs to sensitise the assay
Detection: 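Per-well count of mitotic cells stained for phospho-histone H3 after doxorubicin exposure, used as mitotic index; counts are raw and not normalised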
Scale: mitotic cells: higher = more cells in mitosis, weaker G2 arrest
Active means: 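Genes are called active only when high mitotic counts were reproduced with independent dsRNAs and mitosis was checked for delay without damage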
Calls: active = confirmed in follow-up tests; inactive = not confirmed
The deposit covers about 23,000 reagents; shown is a random part of those with a known target gene and a result. Of all reagents, 62 (0.27%) are marked active. 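Calls come from follow-up tests whose scores are not deposited, so confirmed genes may have low counts here; counts are not normalised per plate.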 Raw values are not corrected between plates.

CG11286 [DRSC14293]
- mitotic cells, replicate 1: 5
- activity call: inactive

CG5506 [DRSC10511]
- mitotic cells, replicate 1: 2
- activity call: inactive

mRpL51 [DRSC02200]
- mitotic cells, replicate 1: 4
- activity call: inactive

mRpL51 [DRSC29908]
- mitotic cells, replicate 1: 7
- activity call: inactive

CG31431 [DRSC14589]
- mitotic cells, replicate 1: 6
- activity call: inactive

CG12096 [DRSC21692]
- mitotic cells, replicate 1: 11
- activity call: inactive

CG12096 [DRSC27886]
- mitotic cells, replicate 1: 5
- activity call: inactive

CG6324 [DRSC19985]
- mitotic cells, replicate 1: 4
- activity call: inactive

CG10038 [DRSC14178]
- mitotic cells, replicate 1: 9
- activity call: inactive

CG13843 [DRSC14693]
- mitotic cells, replicate 1: 12
- activity call: inactive

CG3919 [DRSC10389]
- mitotic cells, replicate 1: 7
- activity call: inactive

CG12541 [DRSC17839]
- mitotic cells, replicate 1: 16
- activity call: inactive

CG12541 [DRSC28362]
- mitotic cells, replicate 1: 3
- activity call: inactive

Tbh [DRSC18723]
- mitotic cells, replicate 1: 16
- activity call: inactive

Tbh [DRSC26690]
- mitotic cells, replicate 1: 7
- activity call: inactive

PNKP [DRSC16512]
- mitotic cells, replicate 1: 7
- activity call: inactive

bun [DRSC01255]
- mitotic cells, replicate 1: 6
- activity call: inactive

bun [DRSC23041]
- mitotic cells, replicate 1: 4
- activity call: inactive

bun [DRSC25816]
- mitotic cells, replicate 1: 3
- activity call: inactive

CG14306 (retired record) [DRSC14785]
- mitotic cells, replicate 1: 12
- activity call: inactive

Nlp [DRSC16759]
- mitotic cells, replicate 1: 12
- activity call: inactive

Nlp [DRSC26421]
- mitotic cells, replicate 1: 4
- activity call: inactive

CG14632 (retired record) [DRSC17942]
- mitotic cells, replicate 1: 13
- activity call: inactive

CG14632 (retired record) [DRSC25845]
- mitotic cells, replicate 1: 3
- activity call: inactive

Look-ups from the entries so far.
Value for Nlp [DRSC26421] under “activity call”: inactive
bun [DRSC23041], activity call → inactive
